Measured values as given in PubChem BioAssay AID2685 (National Center for Advancing Translational Sciences (NCATS), 2010).
The list shows a part of the results. The main result of the screen is listed elsewhere. These columns were measured beside it and carry no call. Compounds called inactive in the main read-out are mostly missing here. Words in brackets tell the shape of the fitted curve; partial curves, single points and poor fits give uncertain potencies.

Experiment: qHTS Assay for Lipid Storage Modulators in Drosophila S3 Cells;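 on cell number change: cells counted by Cell Tracker Red CMTPX staining in the red channel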
Details: BODIPY lipid droplet fluorescence, 18-24 h; for cell number change: measured here: cell count max response, cells fed with added oleic acid
How it was run: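 Drosophila S3 cells got compounds at several concentrations plus oleic acid (400 uM solution). Laser-scanning cytometry with 488 nm excitation read lipid droplets at 500-530 nm and cells at 575-640 nm. Percent activity was relative to 20 uM Triacsin C.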

[1] = measured here: lipid fluorescence (Fed channel) AC50, cells fed with added oleic acid
[2] = measured here: cell number channel AC50, cells fed with added oleic acid

Row | Compound | cell number change [%] | AC50 [1] | AC50 [2]
1 | CCOC(=O)C1CCN(C(=O)c2cccnc2Cl)CC1 | -29.1 |  | 
2 | CCc1ccc(/C=C2\C(=N)N3N=C(CC(=O)N4CCCCC4)SC3=NC2=O)cc1 | 20.8 | 0.146 µM [rising, single point] | 
3 | Cc1ccc2[nH]c(=O)c(C(c3nnnn3Cc3ccccc3)N3CCc4ccccc43)cc2c1 (stereo not drawn) |  | 2.06 µM [rising, partial curve] | 2.59 µM [rising, partial curve]
4 | COCC(C)NC(=O)c1nn(Cc2ccccc2)c(=O)c2ccccc12 (stereo not drawn) | 11.4 |  | 
5 | COc1ccc(CCNC(=O)/C=C/c2ccco2)cc1 | 3.51 |  | 
6 | CCN(CC)CCCN1C(=O)CSC1c1ccc([N+](=O)[O-])cc1 (stereo not drawn) | 0.125 | 20.6 µM [rising, single point] | 
7 | O=C(COc1ccccc1[N+](=O)[O-])NCC1(N2CCCCC2)CCCCC1 | -6.12 | 3.66 µM [falling, single point] | 0.0058 µM [falling, full curve, poor fit]
8 | CC(C)(C)C(=O)Nc1nnc(SCc2cccc(F)c2)s1 | -13.5 |  | 
9 | COc1cccc(C(=O)N(Cc2cc3cc(C)ccc3[nH]c2=O)C(C)C)c1 | -7.34 |  | 
10 | CCCCOC(=O)C1=C(C)Nc2ncnn2C1c1cccc(OC)c1OC (stereo not drawn) |  | 3.26 µM [rising, single point] | 6.51 µM [rising, single point]
11 | O=C(COc1ncnc2ccccc12)N1CCN(C(=O)c2ccco2)CC1 | 2.66 |  | 
12 | O=C(C[N+]1(CC#Cc2ccccc2)CCCCC1)c1ccc(Cl)cc1 | -4.64 |  | 
13 | COC(=O)[C@H](Cc1ccccc1)N(C)S(=O)(=O)c1cccc(S(=O)(=O)N(C)[C@@H](Cc2ccccc2)C(=O)OC)c1 | 93.5 | 29.1 µM [rising, single point] | 20.6 µM [rising, single point]
14 | O=C(C1=C(O)C(=O)N(Cc2cccnc2)C1c1ccccn1)c1cccs1 (stereo not drawn) | -17.2 | 20.6 µM [falling, single point] | 
15 | COC(=O)Cn1c(Cc2ccccc2)nc2ccccc21 | 25.9 |  | 
16 | Cc1cc(N2CCN(c3ccccc3)CC2)n2ncnc2n1 | 8.33 | 0.0517 µM [rising, full curve, poor fit] | 

Row | Compound | cell number change [%] | AC50 [1] | AC50 [2]
17 | COc1cc2c(cc1OC)CN(CC(=O)Nc1ccc(S(=O)(=O)N3CCCC3)cc1)CC2 | 28 | 29.1 µM [rising, single point] | 3.66 µM [rising, partial curve, poor fit]
18 | O=C(NCCN1CCOCC1)C1CCC(=O)N1Cc1ccccc1Cl (stereo not drawn) | -34.6 | 29.1 µM [falling, single point] | 16.4 µM [falling, single point]
19 | CSc1ncc(Cl)c(C(=O)NCc2cccnc2)n1 | 18.4 | 0.58 µM [rising, single point] | 
20 | N#Cc1cc2c(nc1SCC(=O)N1CCCCC1)CCCCC2 | 2.99 | 0.651 µM [rising, single point] | 
21 | COc1ccccc1C1CCN(C(=O)c2ccc(C(C)(C)C)cc2)CC1 | -30.7 | 29.1 µM [falling, single point] | 29.1 µM [falling, single point]
22 | COCCn1nnnc1C(CC(C)C)N1CCN(C(=O)c2ccco2)CC1 (stereo not drawn) | -1.89 | 3.66 µM [falling, single point] | 
23 | Nc1nonc1-n1nnc(C(=O)N/N=C/c2ccco2)c1-c1ccccc1 | -3.17 | 29.1 µM [rising, single point] | 
24 | O=C1[C@H]2[C@@H](C(=O)N1c1cccc3ccccc13)C1(C(=O)c3ccccc3C1=O)N1CCC[C@@H]21 | -9.66 | 0.0291 µM [rising, full curve, poor fit] | 
25 | S=C(NCc1ccco1)Nc1ccc(Br)cc1Cl | 76.3 |  | 23.1 µM [rising, single point]
26 | c1ccc(Oc2cc(-n3cncn3)ncn2)cc1 | 21.3 | 20.6 µM [rising, single point] | 
27 | O=S(=O)(Nc1cccnc1)c1ccc(Cl)c(C(F)(F)F)c1 | -2.36 | 29.1 µM [rising, single point] | 
28 | O=C(C1CCN(Cc2ccc(Cl)cc2)CC1)N1CCN(Cc2ccc3c(c2)OCO3)CC1 | 6.07 | 0.00461 µM [rising, full curve, poor fit] | 0.00517 µM [rising, full curve, poor fit]
29 | Cc1ccc(C(C(=O)NCc2ccccc2)N(C(=O)c2ccccn2)c2ccccc2)o1 (stereo not drawn) | 2.56 |  | 
30 | COc1ccccc1N(CC(=O)N1CCCCCC1)S(C)(=O)=O | -11.7 |  | 
31 | COc1ccc(CNC(=O)C2CSC(c3ccc(OC)cc3)N2C(C)=O)cc1 (stereo not drawn) |  | 0.58 µM [falling, single point] | 0.116 µM [falling, full curve, poor fit]

From entry 9 to 10, as listed above:
Row | Compound | cell number change [%] | AC50 [1] | AC50 [2]
9 | COc1cccc(C(=O)N(Cc2cc3cc(C)ccc3[nH]c2=O)C(C)C)c1 | -7.34 |  | 
10 | CCCCOC(=O)C1=C(C)Nc2ncnn2C1c1cccc(OC)c1OC (stereo not drawn) |  | 3.26 µM [rising, single point] | 6.51 µM [rising, single point]
